Screening data, single-dose tests

Chains of the proteins cited; added tags and fusions are not shown. Residues count along the entry.
UniProt Q4DA54, 1-478: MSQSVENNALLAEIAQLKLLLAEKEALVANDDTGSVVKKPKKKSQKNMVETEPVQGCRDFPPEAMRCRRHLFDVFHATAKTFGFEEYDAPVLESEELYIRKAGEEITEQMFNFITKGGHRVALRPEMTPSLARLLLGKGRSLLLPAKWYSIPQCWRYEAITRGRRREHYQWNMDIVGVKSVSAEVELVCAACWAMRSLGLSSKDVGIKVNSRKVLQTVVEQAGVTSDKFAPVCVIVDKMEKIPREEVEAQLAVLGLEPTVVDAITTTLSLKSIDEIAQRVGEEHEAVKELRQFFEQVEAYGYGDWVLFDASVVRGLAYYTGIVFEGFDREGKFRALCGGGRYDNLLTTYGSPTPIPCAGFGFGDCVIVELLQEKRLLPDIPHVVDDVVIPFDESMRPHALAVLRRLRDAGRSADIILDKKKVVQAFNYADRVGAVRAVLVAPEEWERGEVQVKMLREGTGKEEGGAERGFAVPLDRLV
UniProt A4I591, 1-473: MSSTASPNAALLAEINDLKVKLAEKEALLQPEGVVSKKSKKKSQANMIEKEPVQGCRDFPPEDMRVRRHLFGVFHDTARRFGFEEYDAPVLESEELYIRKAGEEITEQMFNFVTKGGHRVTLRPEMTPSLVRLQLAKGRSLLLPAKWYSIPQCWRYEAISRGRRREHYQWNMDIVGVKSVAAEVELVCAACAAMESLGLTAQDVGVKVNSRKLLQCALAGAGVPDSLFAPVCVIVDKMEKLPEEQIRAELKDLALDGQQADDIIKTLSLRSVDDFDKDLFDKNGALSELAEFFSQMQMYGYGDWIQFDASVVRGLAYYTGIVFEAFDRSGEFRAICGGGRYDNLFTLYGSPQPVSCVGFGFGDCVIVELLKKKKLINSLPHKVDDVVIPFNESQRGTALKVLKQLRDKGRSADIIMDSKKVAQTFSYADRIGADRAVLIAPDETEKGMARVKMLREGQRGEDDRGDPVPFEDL
UniProt Q8IDJ8, 1-583: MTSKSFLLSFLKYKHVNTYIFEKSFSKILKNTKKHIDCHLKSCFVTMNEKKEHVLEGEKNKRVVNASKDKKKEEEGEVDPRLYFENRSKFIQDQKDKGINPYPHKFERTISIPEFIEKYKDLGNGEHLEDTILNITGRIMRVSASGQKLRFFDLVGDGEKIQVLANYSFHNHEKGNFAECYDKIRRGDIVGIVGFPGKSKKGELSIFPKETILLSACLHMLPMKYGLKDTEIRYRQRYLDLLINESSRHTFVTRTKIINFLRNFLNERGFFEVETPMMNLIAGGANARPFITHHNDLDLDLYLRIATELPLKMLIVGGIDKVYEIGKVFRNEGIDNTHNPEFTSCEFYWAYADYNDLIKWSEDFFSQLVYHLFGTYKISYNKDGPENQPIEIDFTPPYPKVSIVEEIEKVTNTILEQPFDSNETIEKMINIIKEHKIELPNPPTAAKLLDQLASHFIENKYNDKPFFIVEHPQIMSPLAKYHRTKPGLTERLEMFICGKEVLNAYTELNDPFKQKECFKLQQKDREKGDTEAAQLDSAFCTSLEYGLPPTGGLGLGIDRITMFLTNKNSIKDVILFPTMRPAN
UniProt P9WNZ1, whole entry: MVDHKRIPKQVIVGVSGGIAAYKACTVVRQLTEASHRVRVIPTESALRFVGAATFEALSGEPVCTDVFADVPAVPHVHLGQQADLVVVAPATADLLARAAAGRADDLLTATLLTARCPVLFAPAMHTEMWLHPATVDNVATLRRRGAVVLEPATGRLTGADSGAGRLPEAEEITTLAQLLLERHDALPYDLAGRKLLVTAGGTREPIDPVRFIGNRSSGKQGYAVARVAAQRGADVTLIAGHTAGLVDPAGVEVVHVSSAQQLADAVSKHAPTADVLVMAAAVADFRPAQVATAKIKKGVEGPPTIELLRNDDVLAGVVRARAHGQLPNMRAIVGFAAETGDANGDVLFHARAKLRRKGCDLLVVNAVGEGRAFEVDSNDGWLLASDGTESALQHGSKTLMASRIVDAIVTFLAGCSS

Source: ChEMBL document CHEMBL3988442, “University of Dundee, Small-Polar-MMV Screening Library” (2021).

Values are the deposited “Percent Effect”, in %. The controls that fix the scale are not given in the record; negative values are as filed. Compounds were drawn at random from those tested, without regard to their results. Two or more numbers in one place are separate tests of the same structure; such repeats can differ widely. A dash means the value is not listed here; it may have been measured.

TcHisRS: 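Histidine-tRNA ligase, Trypanosoma cruzi CL Brener (UniProt Q4DA54). Enzyme assay of histidyl-tRNA synthetase; the read-out is not stated. Concentration: 30 µM. Higher reads as stronger inhibition (inferred: compounds with an IC50 in retests scored well above the rest). Size under these conditions: about 69,000 compounds, about 31 of them at 50% or above in at least one test.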
LiHisRS: 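Histidine-tRNA ligase, Leishmania infantum (UniProt A4I591). Enzyme assay of histidyl-tRNA synthetase; the read-out is not stated. Tested at 30 µM. Higher reads as stronger inhibition (inferred: compounds with an IC50 in retests scored well above the rest). The assay is labelled LdHisRS but filed under L. infantum. About 69,000 compounds were tested under these conditions; 0.6% (about 410) showed 50% or more at least once.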
Toxoplasma: 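Assay of Toxoplasma gondii numbers, read through their beta-galactosidase reporter with a colour substrate. Compounds at 10 µM. Higher reads as fewer parasites (inferred from which compounds were picked for retests). Of about 67,000 compounds tested this way, about 260 (0.38%) reached 50% or more in at least one test.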
PfKRS1: 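Enzyme assay of the cytosolic lysyl-tRNA synthetase in 384-well plates, read by luminescence. Target: Lysine-tRNA ligase, Plasmodium falciparum 3D7 (UniProt Q8IDJ8). Compounds at 30 µM. Direction is inferred from only a few compounds that gave an IC50; most scored high, so higher reads as stronger inhibition. Size under these conditions: about 69,000 compounds, about 49 of them at 50% or above in at least one test.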
CoaBC: 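Coenzyme A biosynthesis protein CoaBC, Mycobacterium tuberculosis (UniProt P9WNZ1). Enzyme assay of CoaBC with a phosphate dye (Biomol Green) read at 650 nm. Tested at 30 µM. Higher reads as stronger inhibition, judged from the few compounds that gave an IC50. Most strong results did not repeat in a second test. About 67,000 compounds were tested under these conditions; 0.06% (about 40) showed 50% or more at least once.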

{"structure": "Cc1nc(C)n(CC2CCCN2Cc2nc(-c3cccs3)no2)n1", "stereo": "stereo unspecified", "TcHisRS": 6.464, "LiHisRS": 13.6, "Toxoplasma": -2.399, "PfKRS1": 5.421, "CoaBC": 3.191}
{"structure": "O=C(Cn1ccc(=O)[nH]c1=O)Nc1ccccc1F", "TcHisRS": 1.031, "LiHisRS": 6.452, "Toxoplasma": -6.804, "PfKRS1": 3.91, "CoaBC": -0.7335}
{"structure": "CCOc1cccc(C2CC(=O)NCc3nc(N4CCCC4)sc32)c1", "stereo": "stereo unspecified", "TcHisRS": 9.836, "LiHisRS": 24.66, "Toxoplasma": 3.559, "PfKRS1": 1.447, "CoaBC": 14.91}
{"structure": "Cc1c(C(=O)N2CCC(O)(CN(C)C)C2)c2ccccc2n1C", "stereo": "stereo unspecified", "TcHisRS": 2.985, "LiHisRS": 7.368, "Toxoplasma": 0.6632, "PfKRS1": -2.312, "CoaBC": 7.056}
{"structure": "C=C(C)COCCNC(=O)Nc1cccc(Cn2nc(C)nc2C)c1", "TcHisRS": -5.882, "LiHisRS": 14.04, "Toxoplasma": -3.121, "PfKRS1": 0.1165, "CoaBC": 10.89}
{"structure": "C[C@@H]1CN(C2CCOC2)C[C@]12CCN(c1cccnc1)C2=O.O=C(O)C(F)(F)F.O=C(O)C(F)(F)F", "stereo": "stereo partly specified", "Toxoplasma": 5.678}
{"structure": "[H][C@@]12CCN(Cc3cccc4ccccc34)C[C@]1(c1nnc(C)o1)CCO2", "Toxoplasma": 8.544}
{"structure": "CN1CCN([C@H]2CCN(C(=O)c3cc(Cl)cn3C)C[C@H]2CCCO)CC1", "TcHisRS": -3.478, "LiHisRS": 8.333, "Toxoplasma": 20.1, "PfKRS1": 4.23, "CoaBC": "29.05 & 2.116"}
{"structure": "O=C(O)C(F)(F)F.O=C1COC2(CCN(Cc3cccs3)CC2)CN1c1ccccc1", "Toxoplasma": 6.443}
{"structure": "Cc1nc2c(N3CCN(CCO)CC3)nc(N)nc2n1C", "TcHisRS": 7.772, "LiHisRS": 12.36, "Toxoplasma": 10.07, "PfKRS1": 4.969, "CoaBC": 3.385}
{"structure": "Cc1ccc(C2CSCCN2C(=O)c2ccc(C(N)=O)cc2)o1", "stereo": "stereo unspecified", "TcHisRS": 0, "LiHisRS": 20.75, "Toxoplasma": -0.05316, "PfKRS1": 6.813, "CoaBC": 10.13}
{"structure": "O=C(O)C1CN(c2cccc(Cl)c2)CCO1", "stereo": "stereo unspecified", "TcHisRS": 7.605, "LiHisRS": 11.72, "Toxoplasma": 6.218, "PfKRS1": 1.398, "CoaBC": 3.09}
{"structure": "O=C(COc1ccccc1F)NCC(O)(c1ccccc1)C1CC1", "stereo": "stereo unspecified", "TcHisRS": 6.024, "LiHisRS": 17.95, "Toxoplasma": -7.696, "PfKRS1": 3.375, "CoaBC": 4.326}
{"structure": "Cc1noc(C)c1C(=O)NCC1CCCCN1Cc1ccccc1", "stereo": "stereo unspecified", "TcHisRS": 10.83, "LiHisRS": 18.31, "Toxoplasma": 4.639, "PfKRS1": 5.441}
{"structure": "COc1cc(C(C)=O)ccc1OCCNCc1ccco1.Cl", "Toxoplasma": 0.3162}
{"structure": "Cc1cccc2nc(-c3nc4c([nH]3)CCCNC4=O)cn12", "TcHisRS": -2.4, "LiHisRS": 15.04, "Toxoplasma": 2.588, "PfKRS1": 2.602, "CoaBC": -4.034}
{"structure": "CCN(CC)Cc1ccc(C(=O)N2CCCC2Cn2cccn2)cc1", "stereo": "stereo unspecified", "TcHisRS": -45.19, "LiHisRS": 11.01, "Toxoplasma": -1.145, "PfKRS1": -1.576, "CoaBC": -1.619}
{"structure": "O=S(=O)(Cc1ccccc1)NCC1CCCN(Cc2cccs2)C1", "stereo": "stereo unspecified", "TcHisRS": 3.061, "LiHisRS": 11.57, "Toxoplasma": -16.33, "PfKRS1": -0.2199, "CoaBC": 1.124}
{"structure": "CNC(=O)CCc1cc(C2CCCCN2C(C)C)nc(C)n1", "stereo": "stereo unspecified", "TcHisRS": 2, "LiHisRS": 1.342, "Toxoplasma": 4.74, "PfKRS1": -0.2364, "CoaBC": 1.826}
{"structure": "COc1ccccc1C(=O)N1CCC(Oc2ccc(C#N)cn2)CC1", "TcHisRS": 3.061, "LiHisRS": 8.264, "Toxoplasma": -3.665, "PfKRS1": 2.615, "CoaBC": 2.122}
{"structure": "Cc1cc(C)c(CNC(=O)N2CCN(c3ncccn3)CC2)c(=O)[nH]1", "TcHisRS": 0.3802, "LiHisRS": 7.2, "Toxoplasma": -13.27, "PfKRS1": 0.9823, "CoaBC": -1.596}
{"structure": "COCC1c2nnn(C)c2CCN1C(=O)COc1ccccc1OC", "stereo": "stereo unspecified", "TcHisRS": 6.63, "LiHisRS": 6.306, "Toxoplasma": 0.5557, "PfKRS1": 5.439, "CoaBC": 0.9901}
{"structure": "Cc1ccc(C(=O)CN2C(=O)c3ccccc3CS2(=O)=O)c(C)c1", "TcHisRS": -9.852, "LiHisRS": 6.849, "Toxoplasma": -1.77, "PfKRS1": 3.718, "CoaBC": -1.282}
{"structure": "Fc1ccc(CN2CCOC[C@H](Oc3cccnc3)C2)cc1", "TcHisRS": -2.174, "LiHisRS": 22.97, "Toxoplasma": 7.093, "PfKRS1": -7.465, "CoaBC": 9.492}
{"structure": "CC(C)c1cc(=O)[nH]c(-c2ccccc2CN2CCCC2C)n1", "stereo": "stereo unspecified", "TcHisRS": 3.627, "LiHisRS": 15.05, "Toxoplasma": 9.596, "PfKRS1": 11.4, "CoaBC": 5.275}
{"structure": "CC(C)n1cnc2c1C(C(=O)N1CCOCC1)N(CC1CC1)CC2", "stereo": "stereo unspecified", "TcHisRS": 5.747, "LiHisRS": -70, "PfKRS1": 4.08, "CoaBC": 1.844}
{"structure": "CC(C)N(Cc1ccccc1)C(=O)c1cc(C2CCCN2C)ccn1", "stereo": "stereo unspecified", "TcHisRS": 10.49, "LiHisRS": 12, "Toxoplasma": -9.75, "PfKRS1": 1.727, "CoaBC": -2.354}
{"structure": "CN(Cc1nccs1)C1CCN(c2ncccn2)CC1", "TcHisRS": 9.211, "LiHisRS": 10.83, "Toxoplasma": -2.74, "PfKRS1": 3.379}

Once more, the final 2:

structure,TcHisRS,LiHisRS,Toxoplasma,PfKRS1,CoaBC
CC(C)N(Cc1ccccc1)C(=O)c1cc(C2CCCN2C)ccn1 (stereo unspecified),10.49%,12%,-9.75%,1.727%,-2.354%
CN(Cc1nccs1)C1CCN(c2ncccn2)CC1,9.211%,10.83%,-2.74%,3.379%,-